# Reference: US10829718B2, “Detergent composition comprising a carbinol functional trisiloxane” (Dow Silicones Corporation, priority 2016, dated 2020)
# Some of these results come from one statement about several compounds together. For at least one compound, name, drawing or mass did not settle the structure.
# Format: physicochemical
# Conditions: 0.5 wt % of the material in distilled water at 20° C., mixed one hour
# Excerpt: The directive essentially states that if a material is classified as a surfactant in must pass certain biodegradation protocols. A surfactant was generally defined as a material capable of: 1) reducing the surface tension of water to ≤45 dynes/cm (or ≤45 mN/m) at a concentration of 0.5 wt % of the material in water; 2) forming spreading or adsorption monolayers at an air/water interface; 3) forming emulsions, microemulsions and/or micelles; and 4) adsorption at a water/solid interface. Surface tension of an aqueous solution, fluid, or mixture can readily be determined by various methods understood in the art. Generally, for stable solutions or mixtures, an equilibrium method such as the Wilhelmy plate method or Du Noüy ring method can be utilized. Alternately, for more dynamic systems, a pendant drop method can be utilized. This technique results in a fresh surface for each measurement. This method is also useful to reduce the potential for insoluble hydrophobic impurities or oils which could impact the surface tension measurement resulting in artificially low surface tension values. An example of such a surfactant assessment/classification is illustrated in the flow diagram of FIG. 3. Referring to the protocol illustrated in FIG. 3, the initial assessment is whether or not a 0.5 wt % mixture of the material being tested is soluble in water. Mixtures were prepared by adding 0.5% of the material to distilled water at 20° C. and mixing with a magnetic stir bar for one hour. If the material is soluble in water, as indicated, for example, by the formation of a clear or slightly hazy mixture, then surface tension (σ) is determined. If σ is >45 mN/m, the material is not classified as a surfactant. If σ is ≤45 mN/m, and micelles are not present, the material is not classified as a surfactant. Conversely, if micelles are present, the material is classified as a surfactant. If the material is not soluble in water, and no emulsion is present (e.g. solid particles or gels are present instead), then the material is not classified as a surfactant. If an emulsion is present (e.g. droplets are present) and the emulsion in stable, then σ is determined. If σ is >45 mN/m, the material is not classified as a surfactant. Conversely, if σ is ≤45 mN/m, the material is classified as a surfactant. If the material is not soluble in water, and an emulsion is present (e.g. droplets are present) and the emulsion is not stable, the emulsion is then centrifuged. The (clear) main phase (or supernatant) of the emulsion is further studied and the a is determined. If σ is >45 mN/m, the material is not classified as a surfactant. Conversely, if σ is ≤45 mN/m, and micelles are not present, the material is not classified as a surfactant. Conversely, if micelles are present, the material is classified as a surfactant.
row,Compound,classification as surfactant / non-surfactant according to the protocol/flow diagram
1,"C[Si](C)(C)O[Si](C)(CCCOCC(O)CO)O[Si](C)(C)C (stereo not drawn) [Example 3, Trisiloxane Monoglycerol]",non-surfactants
2,"C[Si](C)(C)O[Si](C)(CCCOCC(O)CNC(CO)(CO)CO)O[Si](C)(C)C (stereo not drawn) [Example 10, BisH-AGE-Tris]",non-surfactants
3,"CC(O)CN(CC(C)O)CC(O)COCCC[Si](C)(O[Si](C)(C)C)O[Si](C)(C)C (stereo not drawn) [Example 13, BisH-AGE-DIPA]",non-surfactants
4,BisH-allyl xylitol [Example 9],non-surfactants
5,"C[Si](C)(C)O[Si](C)(CCCOCC(O)COCC(O)CO)O[Si](C)(C)C (stereo not drawn) [Example 8, BisH-allyl diglycerol]",non-surfactants
6,"CCC(CO)(CO)COCCC[Si](C)(O[Si](C)(C)C)O[Si](C)(C)C [Example 2, BisH-Trimethylolpropane allyl ether]",non-surfactants
